# Experimental data: PubChem BioAssay AID1259424 (University of Nebraska Medical Center, 2018)
# Assay: 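Find knockdowns that reproduce the expression shifts seen after KSR1 loss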 (primary screen)
# Cells: human HCT116 colon cancer cells
# Knock-down reagent: siRNA pool against human genes, 50 nM
# Measurement: 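Six signature mRNAs by branched-DNA multiplex assay, scaled to two housekeeping genes and non-targeting median, log2; matched to mean KSR1 knockdown profile by Pearson correlation and euclidean distance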
# Scale: mean correlation with KSR1 profile and KSR1 correlation: higher = expression change more like KSR1 knockdown; mean distance from KSR1 profile: higher = expression change less like KSR1 knockdown
# This is an unselected part of about 14,000 reagents tested. 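Higher correlation or smaller distance means closer resemblance to KSR1 loss; control wells, including KSR1 knockdowns, recur on many plates.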 Further read-outs or replicates are left out here. No sequences are given here. The record does not give: the time to read-out.
Target gene,mean correlation with KSR1 profile,mean distance from KSR1 profile,"KSR1 correlation, replicate 1"
POM121,-0.149,1.37,-0.11
CES2,0.00902,1.68,0.126
PTPRU,0.301,1.85,0.156
DMGDH,0.613,3.58,0.304
CEACAM6,-0.0916,2.46,0.125
ZBTB45,0.85,0.952,0.936
NFU1,0.791,0.829,0.765
DAO,0.282,3.95,-0.175
GPBAR1,0.154,2.01,0.264
TRIM54,-0.595,1.63,-0.701
TSLIG2,-0.706,1.74,-0.804
KIDINS220,0.48,1.47,0.425
DNAJB2,-0.386,1.6,-0.277
COX11,0.484,1.91,0.538
ZNF665,-0.578,1.81,-0.613
RALA,0.339,1.43,0.245

Not a retest: an excerpt of the list.
Target gene,mean correlation with KSR1 profile,mean distance from KSR1 profile,"KSR1 correlation, replicate 1"
CES2,0.00902,1.68,0.126
PTPRU,0.301,1.85,0.156
DMGDH,0.613,3.58,0.304
CEACAM6,-0.0916,2.46,0.125
ZBTB45,0.85,0.952,0.936
NFU1,0.791,0.829,0.765

More results:
Target gene,mean correlation with KSR1 profile,mean distance from KSR1 profile,"KSR1 correlation, replicate 1"
ACP3,0.22,1.88,0.22
OBP2B,-0.55,1.79,-0.647
MYOM1,-0.396,3.77,-0.242
PMS2P3,-0.328,2.02,-0.152
PTOV1,-0.316,3.27,-0.574
RIF1,-0.76,3.45,-0.678
NUB1,0.289,3.32,0.36
SCN4B,-0.249,2.17,-0.296
MYOM2,-0.264,2.51,-0.0223
SLC28A2,-0.506,3.07,-0.137
PHTF2,-0.588,2.14,-0.76
MYO1D,0.192,1.11,0.315
PARP11,-0.418,2.74,-0.413
PRRX1,-0.301,1.55,-0.0176
ABTB1,0.65,1.97,0.662
SIK3,0.33,1.92,0.643
CH25H,-0.133,1.73,-0.198
POLDIP2,-0.358,1.71,-0.123
